Source: paper PMC3694847
These are yes or no findings as the source states them, for the method shown. In cells and extracts the contact can be indirect. For part of these data: Binding can be weak; no strength is given.

The chains behind the UniProt entries cited, without tags or fusion partners. Where a name states a change or a piece, a line headed by the entry shows the natural chain unless it says otherwise.
UniProt Q6P7W0: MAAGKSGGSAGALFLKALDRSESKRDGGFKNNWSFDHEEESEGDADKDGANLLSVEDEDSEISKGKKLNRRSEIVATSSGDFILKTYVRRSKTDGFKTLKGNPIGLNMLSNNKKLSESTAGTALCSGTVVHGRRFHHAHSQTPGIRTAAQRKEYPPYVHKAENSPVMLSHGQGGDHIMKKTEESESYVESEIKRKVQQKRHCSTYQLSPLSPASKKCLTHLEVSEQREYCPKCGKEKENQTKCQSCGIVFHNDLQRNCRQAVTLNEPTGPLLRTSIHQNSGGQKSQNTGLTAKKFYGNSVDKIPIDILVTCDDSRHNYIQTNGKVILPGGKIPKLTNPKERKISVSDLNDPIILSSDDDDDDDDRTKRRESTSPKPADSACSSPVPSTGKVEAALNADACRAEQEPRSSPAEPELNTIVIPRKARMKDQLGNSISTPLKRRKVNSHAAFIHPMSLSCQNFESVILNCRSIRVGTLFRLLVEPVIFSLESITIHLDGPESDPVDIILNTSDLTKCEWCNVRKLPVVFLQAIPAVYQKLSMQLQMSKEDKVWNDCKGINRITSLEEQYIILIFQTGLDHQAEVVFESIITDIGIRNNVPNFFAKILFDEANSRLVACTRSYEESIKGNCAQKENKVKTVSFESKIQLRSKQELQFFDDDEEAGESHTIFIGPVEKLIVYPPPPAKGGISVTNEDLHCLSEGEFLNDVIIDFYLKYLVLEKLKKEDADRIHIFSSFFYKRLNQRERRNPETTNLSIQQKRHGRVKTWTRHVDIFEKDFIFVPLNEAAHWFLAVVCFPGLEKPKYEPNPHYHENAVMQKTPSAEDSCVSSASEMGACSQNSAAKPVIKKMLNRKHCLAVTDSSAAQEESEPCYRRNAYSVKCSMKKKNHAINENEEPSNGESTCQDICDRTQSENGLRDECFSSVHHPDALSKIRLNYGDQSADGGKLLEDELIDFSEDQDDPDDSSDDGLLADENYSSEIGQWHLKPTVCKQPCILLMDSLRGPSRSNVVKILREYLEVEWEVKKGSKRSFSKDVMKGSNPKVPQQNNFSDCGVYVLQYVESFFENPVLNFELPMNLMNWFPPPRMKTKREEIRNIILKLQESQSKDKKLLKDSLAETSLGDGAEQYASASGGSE
UniProt Q80TQ2: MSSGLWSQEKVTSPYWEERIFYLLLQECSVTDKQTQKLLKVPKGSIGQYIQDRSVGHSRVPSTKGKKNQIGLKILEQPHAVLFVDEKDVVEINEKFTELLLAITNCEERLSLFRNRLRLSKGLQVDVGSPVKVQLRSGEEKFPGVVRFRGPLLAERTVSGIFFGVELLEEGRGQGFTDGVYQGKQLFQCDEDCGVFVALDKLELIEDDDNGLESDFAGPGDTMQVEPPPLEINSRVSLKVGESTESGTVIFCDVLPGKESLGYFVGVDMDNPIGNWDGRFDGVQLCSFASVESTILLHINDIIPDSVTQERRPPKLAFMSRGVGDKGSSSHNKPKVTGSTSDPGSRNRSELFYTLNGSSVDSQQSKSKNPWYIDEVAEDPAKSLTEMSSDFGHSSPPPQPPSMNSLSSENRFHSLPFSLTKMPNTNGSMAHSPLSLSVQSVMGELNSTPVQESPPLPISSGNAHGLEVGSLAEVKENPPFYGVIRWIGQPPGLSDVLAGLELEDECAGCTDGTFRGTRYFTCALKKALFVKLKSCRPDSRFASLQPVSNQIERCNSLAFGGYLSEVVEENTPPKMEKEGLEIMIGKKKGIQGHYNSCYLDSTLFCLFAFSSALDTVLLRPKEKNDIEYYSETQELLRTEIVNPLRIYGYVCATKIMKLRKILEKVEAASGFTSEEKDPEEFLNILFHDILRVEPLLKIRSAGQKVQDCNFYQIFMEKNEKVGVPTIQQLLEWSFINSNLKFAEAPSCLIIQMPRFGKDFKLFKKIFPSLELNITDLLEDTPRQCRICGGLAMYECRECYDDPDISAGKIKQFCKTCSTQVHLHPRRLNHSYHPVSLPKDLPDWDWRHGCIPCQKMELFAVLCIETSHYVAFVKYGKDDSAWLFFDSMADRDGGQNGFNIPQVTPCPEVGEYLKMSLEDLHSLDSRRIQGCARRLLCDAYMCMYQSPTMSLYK
UniProt Q9Y6K9: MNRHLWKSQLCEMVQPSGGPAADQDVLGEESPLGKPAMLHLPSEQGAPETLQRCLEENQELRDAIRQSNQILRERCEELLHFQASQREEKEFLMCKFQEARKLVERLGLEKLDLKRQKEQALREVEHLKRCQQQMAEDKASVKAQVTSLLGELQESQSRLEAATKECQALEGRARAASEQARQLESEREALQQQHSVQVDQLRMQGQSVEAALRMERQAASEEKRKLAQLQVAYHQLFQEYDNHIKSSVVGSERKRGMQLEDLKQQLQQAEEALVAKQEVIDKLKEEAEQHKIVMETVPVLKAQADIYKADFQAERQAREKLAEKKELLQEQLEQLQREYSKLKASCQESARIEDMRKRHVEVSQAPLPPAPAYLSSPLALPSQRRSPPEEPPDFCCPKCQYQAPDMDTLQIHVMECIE

Experiments:
GST-SENP6 = GST-SENP6 (UniProt Q6P7W0); test: pull-down; purified GST fusion (or GST) preloaded on GST resin; incubated 4 h at 4°C with the Ni-NTA eluate (~300 mM imidazole) of extracts of HEK293T cells transfected with tagged NEMO and His-SUMO-3; immunoblot; both purified
GST-CYLD (470–684 aa) [1] = target: GST-CYLD (470–684 aa) (UniProt Q80TQ2); test: pull-down; purified GST fusion preloaded on GST resin; incubated 4 h at 4°C with extracts of HEK293T cells transfected with HA-NEMO or HA-NEMO-SUMO-3; immunoblot; only the target purified
GST-CYLD (470–684 aa) [2] = target: GST-CYLD (470–684 aa) (UniProt Q80TQ2); test: pull-down; purified GST fusion (or GST) preloaded on GST resin; incubated 4 h at 4°C with the Ni-NTA eluate (~300 mM imidazole) of extracts of HEK293T cells transfected with tagged NEMO and His-SUMO-3; immunoblot; both purified

## Flag-NEMO K277A (co-expressed with His-SUMO-3) (from UniProt Q9Y6K9 1-419)
GST-SENP6
  binding: no binding

## HA-NEMO (from UniProt Q9Y6K9 1-419)
GST-CYLD (470–684 aa) [1]
  binding: binds
GST-CYLD (470–684 aa) [2]
  binding: binds
